From PubChem BioAssay AID448 (National Center for Advancing Translational Sciences (NCATS), 2006) come the findings set out here.

Each structure is given as a SMILES string. Most of the hits are listed elsewhere, so they are rarer here than in the full data. Activity calls are given as the source filed them. Calls come from the whole dose curve.
Potency is the fitted concentration of half-maximal effect.

The experiment deals with Schistosoma mansoni peroxiredoxin 2 (Prx2). Briefly: Schistosoma Mansoni Peroxiredoxins (Prx2). To be noted: S. mansoni Prx2 activity coupled to TGR/GSH (TGR is thioredoxin glutathione reductase), NADPH fluorescence loss, qHTS. From the text:
NIH Molecular Libraries Screening Centers Network [MLSCN]
NIH Chemical Genomics Center [NCGC]
David Williams [Illinois State University]
Schistosoma mansoni, a causative agent of schistosomiasis, resides in the bloodstream of their host up to 30 years without being eliminated by the host immune attack. One proposed survival mechanism is the production of an antioxidant "firewall" that neutralizes the oxidative assault of the host's immune attack. Schistosoma mansoni peroxiredoxins (Prx) are important parasite antioxidant proteins that play a crucial role in redox balance mechanisms. […] First, the proteins are essential for the parasite survival. […] Third, the protein(s) is amenable for study at the molecular level and can be produced in bacteria in large quantities, in soluble and active form. Inhibition of Prx activity was screened in a coupled-enzyme format with reducing equivalents being transferred from NADPH to […] intermediate via thioredoxin/glutathione reductase (TGR)-catalyzed reaction, then from thioredoxin to hydrogen peroxide via Prx-catalyzed electron transfer. A decrease in the fluorescence intensity of NADPH was used to measure the enzyme activity. Purified S. mansoni TGR and Prx were provided by Professor David L. Williams, Illinois State University.
NCGC Assay Protocol Summary:
100 mM phosphate buffer, pH 7.4, 10 mM EDTA, 0.01% Tween-20.
100 uM NADPH/25 nM TGR/700 uM GSH/50 nM Prx2 mixture in columns 1, 2, 5-48. Titration of control potassium antimonyl tartrate (PAT, from 1 mM, then 1:5) pin-transferred to lower half of column 2. Column 1 and upper half of column 2 are neutral (100% activity).
Three uL of reagents were dispensed to 1536-well Greiner black plates. Compounds and controls (20 nL) were transferred via Kalypsys PinTool. The plates were incubated for 15 min at room temperature, and then a 1 uL aliquot of 400 uM NADPH/700 uM GSH was added, immediately followed by a 1uL aliquot of 2.5 mM H2O2 (to start the reaction). The plate was transferred to ViewLux (Perkin-Elmer) High-throughput CCD imager where kinetic measurements (every 30 sec, for a total of 8 min) of NADPH fluorescence were taken using 365 nm excitation/450 nm emission filter set. During dispense, enzyme-containing reagent bottles were kept submerged into 4 deg C water bath to minimize degradation.
Keywords: NIH Roadmap, MLSCN, MLI, MLSMR, David Williams, Peroxyredoxin, Schistosoma mansoni, prx2, prx, , qHTS, NCGC
In general terms: qHTS replaces the single test concentration by a dilution series.
Turning to `Cc1c(C(=O)NN2CCCCC2)nn(-c2ccc(Cl)cc2Cl)c1-c1ccc(I)cc1`, the Potency is inactive: > 57 µM.
To `CCCCNc1c(CN)cnc2cc(Cl)ccc12` belongs inactive: > 57 µM; to `Cc1cccc(CCN2CCC(C(=O)c3ccc(NS(C)(=O)=O)cc3)CC2)n1`, inactive: > 57 µM.
To `COc1ccc2c(c1)c1c(C)c3cnccc3c(C)c1n2CCCN` belongs inactive: > 57 µM; to `NCCN1C(=O)c2ccccc2[C@@]1(O)c1ccc(Cl)cc1`, inactive: > 57 µM.
